This passage reports binding results from article PMC10805397.

Protein sequences, listed by entry. Tags and fused reporters are not part of them. Residues count along the entry.
UniProt P58390, residues 266-839: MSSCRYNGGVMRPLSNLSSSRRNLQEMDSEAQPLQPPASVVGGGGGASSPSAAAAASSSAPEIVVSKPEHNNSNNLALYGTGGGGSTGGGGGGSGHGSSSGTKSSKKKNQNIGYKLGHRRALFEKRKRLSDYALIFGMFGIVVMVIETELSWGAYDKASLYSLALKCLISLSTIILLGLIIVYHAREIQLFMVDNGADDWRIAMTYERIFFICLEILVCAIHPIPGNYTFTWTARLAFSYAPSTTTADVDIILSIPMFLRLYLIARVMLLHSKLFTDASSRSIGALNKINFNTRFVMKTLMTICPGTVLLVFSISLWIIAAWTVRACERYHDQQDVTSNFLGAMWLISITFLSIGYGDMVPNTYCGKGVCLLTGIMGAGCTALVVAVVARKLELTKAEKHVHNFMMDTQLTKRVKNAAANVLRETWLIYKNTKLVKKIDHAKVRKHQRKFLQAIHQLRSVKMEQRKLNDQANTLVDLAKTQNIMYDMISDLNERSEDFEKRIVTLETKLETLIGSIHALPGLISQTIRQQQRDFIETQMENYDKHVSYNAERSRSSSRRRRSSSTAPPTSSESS

No constants are given. Whether binding was seen depends on the method and setting. In cells and extracts the contact can be indirect. Some results given as binding are weak or reduced against the parent protein; the word gives no strength.

This assay deals with small-conductance calcium-activated potassium channel subtype 2 (mouse (endogenous in BLA tissue)) (UniProt P58390). Description: co-IP; mouse BLA lysed in IP lysis buffer; supernatant incubated with anti-SK2 antibody overnight at 4°C, Protein A/G agarose beads 3 h, washed three times; blot probed with anti-MPP2 antibody; IgG as control.

B1: Membrane palmitoylated protein 2 (protein, UniProt Q9WV34 1-552)
chain: MPVAATNSESAMQQVLDNLGSLPNATGAAELDLIFLRGIMESPIVRSLAKAHERLEETKLEAVRDNNLELVQEILRDLAELAEQSSTAAELARILQEPHFQSLLETHDSVASKTYETPPPSPGLDPTFSNQPVPPDAVRMVGIRKTAGEHLGVTFRVEGGELVIARILHGGMVAQQGLLHVGDIIKEVNGQPVGSDPRALQELLRSASGSVILKILPSYQEPHLPRQVFVKCHFDYDPARDSLSPCKEAGLRFNAGDLLQIVNQDDANWWQACHVEGGSAGLIPSQLLEEKRKAFVKRDLELTPTSGTLCGSLSGKKKKRMMYLTTKNAEFDRHELLIYEEVARMPPFRRKTLVLIGAQGVGRRSLKNKLILWDPDRYGTTVPYTSRRPKDSEREGQGYSFVSRGEMEADIRAGRYLEHGEYEGNLYGTRIDSIRGVVASGKVCVLDVNPQAVKVLRTAEFVPYVVFIEAPDYETLRAMNRAALESGVSTKQLTEADLRRTVEESSRIQRGYGHYFDLSLVNSNLERTFRELQTAMEKLRTEPQWVPVSWVY
On to B1, for which the binding result is “binds”.
